# Experimental data: PubChem BioAssay AID1224826 (NIAID, 2016)
# Purpose: 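Genes that change LPS-induced Tnf promoter activity in mouse macrophages when knocked down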 (primary screen)
# System: RAW264.7 G9 macrophages from mouse bearing reporters for p65 (GFP) and the Tnf promoter (mCherry)
# Reagent: siRNA pool against mouse genes, 100 nM
# Timing: 16 h of LPS stimulation, after 2 days of siRNA transfection
# Conditions: bacterial lipopolysaccharide (Salmonella minnesota R595), 10 ng/ml
# Measurement: 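Nuclear mCherry signal of the Tnf promoter reporter measured by imaging after background removal, scaled to each plate median and turned into robust z-scores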
# Reading the numbers: Tnf reporter robust z-score: higher = stronger Tnf promoter reporter signal after LPS
# Rule for the call: 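a well counts as active at a score of -1.3 or below (Tlr4 knock-down control median) or above 3 (raised signal); controls and wells holding fewer than 50 cells are excluded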
# Calls: active = Tnf reporter clearly lowered or raised; inactive = no clear change in Tnf reporter
# The deposit covers about 17,000 reagents; below is an unselected part. About 1,110 of all reagents (6.6%) count as active. 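Active means lowered or raised reporter signal; replicate intensities are raw and not normalised per plate.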 The numbers tell different reagents against one gene apart. Further read-outs or replicates are left out here. Reagent sequences are not shown.
The opening 7 entries as a preview:
gene,reagent,Tnf reporter robust z-score,fewer than 50 cells in well,Call
Cdh13 (cadherin 13),1,-0.65,enough cells in well,inactive
Spry4 (sprouty RTK signaling antagonist 4),1,2.81,enough cells in well,inactive
Mmut (methylmalonyl-Coenzyme A mutase),1,0.37,enough cells in well,inactive
"Papln (papilin, proteoglycan-like sulfated glycoprotein)",1,-0.99,enough cells in well,inactive
"Psmf1 (proteasome (prosome, macropain) inhibitor subunit 1)",1,,fewer than 50 cells per well; well left out of calls,inactive
Il2 (interleukin 2),1,0.22,enough cells in well,inactive
Esm1 (endothelial cell-specific molecule 1),1,-0.76,enough cells in well,inactive

The listing, from the first entry:
gene,reagent,Tnf reporter robust z-score,fewer than 50 cells in well,Call
Cdh13 (cadherin 13),1,-0.65,enough cells in well,inactive
Spry4 (sprouty RTK signaling antagonist 4),1,2.81,enough cells in well,inactive
Mmut (methylmalonyl-Coenzyme A mutase),1,0.37,enough cells in well,inactive
"Papln (papilin, proteoglycan-like sulfated glycoprotein)",1,-0.99,enough cells in well,inactive
"Psmf1 (proteasome (prosome, macropain) inhibitor subunit 1)",1,,fewer than 50 cells per well; well left out of calls,inactive
Il2 (interleukin 2),1,0.22,enough cells in well,inactive
Esm1 (endothelial cell-specific molecule 1),1,-0.76,enough cells in well,inactive
Mapk6 (mitogen-activated protein kinase 6),1,-0.91,enough cells in well,inactive
Arl14ep (ADP-ribosylation factor-like 14 effector protein),1,-0.48,enough cells in well,inactive
"Tnfaip8l2 (tumor necrosis factor, alpha-induced protein 8-like 2)",1,,fewer than 50 cells per well; well left out of calls,inactive
Golm1 (golgi membrane protein 1),1,-0.3,enough cells in well,inactive
Arl15 (ADP-ribosylation factor-like 15),1,1.96,enough cells in well,inactive
"Pde4a (phosphodiesterase 4A, cAMP specific)",1,0.06,enough cells in well,inactive
Gbp2 (guanylate binding protein 2),1,-0.86,enough cells in well,inactive
B3gnt9,1,0.88,enough cells in well,inactive
Triqk (triple QxxK/R motif containing),1,-0.12,enough cells in well,inactive
Hsd17b13 (hydroxysteroid (17-beta) dehydrogenase 13),1,-0.26,enough cells in well,inactive
Dcun1d5 (defective in cullin neddylation 1 domain containing 5),1,1.92,enough cells in well,inactive
"Grik2 (glutamate receptor, ionotropic, kainate 2 (beta 2))",1,0.38,enough cells in well,inactive
Txn2 (thioredoxin 2),1,0.54,enough cells in well,inactive
Klk6 (kallikrein related-peptidase 6),1,0.37,enough cells in well,inactive
Hlcs,1,-0.08,enough cells in well,inactive
"Nfxl1 (nuclear transcription factor, X-box binding-like 1)",1,1.32,enough cells in well,inactive
Ndufb11b (NADH:ubiquinone oxidoreductase subunit B11B),1,-1.58,enough cells in well,active
"Sf3a3 (splicing factor 3a, subunit 3)",1,-1.45,enough cells in well,active
"Clec1b (C-type lectin domain family 1, member b)",1,-1.41,enough cells in well,active
Hes6 (hairy and enhancer of split 6),1,-0.16,enough cells in well,inactive
Tbr1 (T-box brain transcription factor 1),1,0.47,enough cells in well,inactive
"Bpnt2 (3'(2'), 5'-bisphosphate nucleotidase 2)",1,-0.39,enough cells in well,inactive
Lhx8 (LIM homeobox protein 8),1,2.69,enough cells in well,inactive
Epha2 (Eph receptor A2),1,0.2,enough cells in well,inactive
"Abcc8 (ATP-binding cassette, sub-family C member 8)",1,-1.29,enough cells in well,inactive
"Abcc8 (ATP-binding cassette, sub-family C member 8)",2,1.62,enough cells in well,inactive
"Zfp85os (zinc finger protein 85, opposite strand)",1,,fewer than 50 cells per well; well left out of calls,inactive
"Tas2r130 (taste receptor, type 2, member 130)",1,0.58,enough cells in well,inactive
Ist1 (IST1 factor associated with ESCRT-III),1,,fewer than 50 cells per well; well left out of calls,inactive
"Tbc1d5 (TBC1 domain family, member 5)",1,0.66,enough cells in well,inactive
Or8s10 (olfactory receptor family 8 subfamily S member 1),1,-0.2,enough cells in well,inactive
BC006965 (cDNA sequence BC006965),1,-0.4,enough cells in well,inactive
Zc3h8 (zinc finger CCCH type containing 8),1,-0.2,enough cells in well,inactive
Usp43 (ubiquitin specific peptidase 43),1,6.25,enough cells in well,active
Stard6 (StAR related lipid transfer domain containing 6),1,1.14,enough cells in well,inactive
Klk1b21 (kallikrein 1-related peptidase b21),1,1.07,enough cells in well,inactive
Trappc6a (trafficking protein particle complex 6A),1,,fewer than 50 cells per well; well left out of calls,inactive
Olfr899 (olfactory receptor 899),1,0.73,enough cells in well,inactive
Usp42 (ubiquitin specific peptidase 42),1,-0.22,enough cells in well,inactive
Or8j3c (olfactory receptor family 8 subfamily J member 3C),1,1.89,enough cells in well,inactive
Anapc4 (anaphase promoting complex subunit 4),1,-0.68,enough cells in well,inactive
Gm9758 (predicted gene 9758),1,0.44,enough cells in well,inactive
"Ms4a7 (membrane-spanning 4-domains, subfamily A, member 7)",1,-0.29,enough cells in well,inactive
"Clcn6 (chloride channel, voltage-sensitive 6)",1,0.59,enough cells in well,inactive
"Tgif2lx1 (TGFB-induced factor homeobox 2-like, X-linked 1)",1,1.39,enough cells in well,inactive
Or5b94 (olfactory receptor family 5 subfamily B member 94),1,-0.41,enough cells in well,inactive
Bcdin3d (BCDIN3 domain containing),1,0.63,enough cells in well,inactive
Appbp2 (amyloid beta precursor protein binding protein 2),1,-0.07,enough cells in well,inactive
Tifab,1,0.68,enough cells in well,inactive
Or5an1 (olfactory receptor family 5 subfamily AN member 1),1,0.54,enough cells in well,inactive
Or5an1 (olfactory receptor family 5 subfamily AN member 1),2,0.25,enough cells in well,inactive
